# Patent US20120183489A1, “COMPOSITIONS COMPRISING METALLATED MALODOR CONTROL POLYMERS” (priority 2011, published 2012)
# Assay: Fadometer test on treated fabric (yellowing under simulated sunlight)
# Details: 1000 ppm aldehyde solution; 0.75 g on 10 cm x 10 cm swatch; 5 hours simulated sunlight, SUNTEST CPS+
row,Structure (SMILES),Fadometer Test on treated Fabric (yellowing)
1,CCCCC/C(C=O)=C/c1ccccc1 [amylic cinnamic aldehyde],Yellowish brown
2,CC(C)=CCCC(C)CC=O (stereo not shown) [citronellal],Yellowish brown
3,CC(C)=CCC/C(C)=C/C=O [citral aldehyde],No yellowing
4,CCCCCCCCCCCC=O [lauric aldehyde],No yellowing
